The results in this text go back to the supplement of paper PMC11150407.

The structures appear in SMILES notation. The whole screen tested about 3,000 compounds, of which about 45 (2%) showed an effect of 50% or more. The list shows a part of the results.

This assay deals with MOLM1 and UCSD/AML1 (averaged). Briefly: cell viability relative to DMSO control (POC); higher = less growth inhibition. As to conditions: 1 µM; 72 h. As to the method: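 Primary viability screen in the 3q26 EVI1-high AML cell lines MOLM1 and UCSD/AML1, compounds at 1 uM for 72 h. ATP CellTiter-Glo read-out given as percent viable over DMSO control (POC), averaged over duplicates. This mapping covers the TimTec NDL-3000 natural derivative library, whose compounds are identified by TimTec catalogue codes (ST...).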
Turning to `COc1c(C)c2c(c(OC)c1OC)COC2=O`, the cell viability came to 102%. Then `COc1cc2c(cc1OC)C(=O)N(Cc1ccccc1)C(=O)C2=O`, with 110%; and `COCCOC(=O)c1c(C)n(-c2ccc(C)c(Cl)c2)c2c1cc(O)c1ccccc12`, with 106%. On to `COc1cc2c(cc1OC)C(c1ccccc1[N+](=O)[O-])OCC2` (centres undefined), for which the cell viability was 92.3%. The figure for `CSc1ccc(C(c2c(O)c3cccc(-c4ccccc4)c3[nH]c2=O)c2c(O)c3ccccc3n(-c3ccccc3)c2=O)cc1` (centres undefined) is 99.8%; for `O=C(O)c1ccccc1C(=O)Nc1ccccc1` it is 106%. Then `CCN(CC)C(=O)c1cc(NC(=O)c2cc(OC)c(OC)c(OC)c2)c(OC)c(OC)c1`, with 103%. The figure for `Cc1[nH]c2ccccc2c1CCNC(=O)c1cc2ccccc2oc1=O` is 100%; for `Cc1[nH]c2ccccc2c1CCNC(=O)c1ccc(=O)[nH]c1` it is 96.3%; for `COC(=O)c1cc(OC)c(OC)c(OC)c1NC(=O)C(=O)c1c(-c2ccccc2)[nH]c2ccccc12` it is 102%. Regarding `CCCCOc1ccccc1NC(=O)c1cc(OC)c(OC)c(OC)c1`, the cell viability is 80.8%. Consider `COc1cc(OC)cc(C(=O)NC(CC(=O)O)c2cccc([N+](=O)[O-])c2)c1` (centres undefined), for which the cell viability turned out to be 99.8%. Then `COc1ccc(C(=O)c2sc3nc(C)cc(C)c3c2N)cc1OC`, with 104%; and `Cc1ccc(OCC(=O)NC(Cc2ccccc2)C(=O)O)cc1` (centres undefined), with 92.6%. The figure for `COc1cc(C2C(C(=O)OC(C)C)=C(C)NC3=C2C(=O)CC(C)(C)C3)cc(Br)c1O` (centres undefined) is 101%; for `O=C(O)Cc1c[nH]c2ccc(O)cc12` it is 97.1%. Take `NC(=O)c1cc(O)c(O)c(O)c1`: the cell viability was 108%. Then `CCCCSc1ccc(NCCC(=O)c2ccc3c(c2)OCO3)cc1`, with 89.7%; and `Cn1nnnc1SCC1=C(C(=O)O)N2C(=O)C(NC(=O)C(O)c3ccccc3)C2SC1` (centres undefined), with 114%; and `COc1cc(C(=O)Oc2ccc(C(C)(C)C)cc2Br)cc(OC)c1OC`, with 89.6%.

In the case of `NC(C(=O)O)C(O)c1ccccc1` (centres undefined), the cell viability amounted to 107%. For the compound `Cn1c(SCC(=O)Nc2ccc(Cl)cc2)nc2c(=O)[nH]cnc21`, the cell viability was 104%. The figure for `COc1cc(C2CC(=O)NC(C)=C2C(=O)OC(C)C)c(Br)c(OC)c1OC` (centres undefined) is 93.7%; for `Cc1c(C(=O)CSc2nc3ccccc3c(=O)[nH]2)c2ccccc2n1C` it is 103%. For the compound `CCCCCOC(=O)C1=C(C)NC2=C(C(=O)CCC2)C1c1cc(Br)c(O)c(OC)c1` (centres undefined), the cell viability was determined as 87%. The figure for `CCN(CC)C(=O)c1cc(=O)n(CC(=O)Nc2ccc(Br)cc2)c2ccccc12` is 103%; for `Cc1cc(=O)oc2cc(OC(=O)c3ccc(C(C)(C)C)cc3)ccc12` it is 87.6%; for `COc1ccc(C(=O)CCNc2ccc(N3CCOCC3)c(Cl)c2)cc1OC` it is 101%. The figure for `COC(=O)C(CCCCCCC(C)C)NC(=O)c1ccccc1` (centres undefined) is 81.7%.

By cell viability is commonly meant a read-out of living cells in per cent, often relative to untreated cells.
